Laboratory results from paper PMC3691878.
No constants are given. Whether binding was seen depends on the method and setting.

B1: human TNFSF15 (ligand, UniProt O95150)
chain: LKGQEFAPSHQQVYAPLRADGDKPRAHLTVVRQTPTQHFKNQFPALHWEHELGLAFTKNRMNYTNKFLLIPESGDYFIYSQVTFRGMTSECSEIRQAGRPNKPDSITVVITKVTDSYPEPTQLLMGTKSVCEVGSNWFQPIYLGAMFSLQEGDKLMVNVSDISLVDYTKEDKTFFGAFLL
B2: human TNFSF11 (ligand, UniProt O14788)
chain: IRAEKAMVDGSWLDLAKRSKLEAQPFAHLTINATDIPSGSHKVSLSSWYHDRGWAKISNMTFSNGKLIVNQDGFYYLYANICFRHHETSGDLATEYLQLMVYVTKTSIKIPSSHTLMKGGSTKYWSGNSEFHFYSINVGGFFKLRSGEEISIEVSNPSLLDPDQDATYFGAFKVRDID

Target: LDVICp016-10His (Lymphocystis disease virus, isolate LCDV-C)
Assay: SPR; LDVICp016L-His (500 ng) covalently coupled to a CM4 Biacore chip; ligands injected at 100 nM in HBS buffer, 25°C, 30 μl/min, 3 min association, 2 min dissociation; reference cell and blank subtracted; both purified

Row | Binder | binding
1 | B1 | no binding (tested: 100 nM)
2 | B2 | no binding (tested: 100 nM)
